Earlier results as cited in patent publication US9539221B2, “Method of treating airway diseases with β-adrenergic inverse agonists” (EGB ADVISORS, LLC, priority 2003, dated 2017).

Conditions: after inhalation; cited from earlier work

CN1[C@@H]2CC[C@H]1C[C@@H](OC(=O)C(CO)c1ccccc1)C2 (stereo partly shown) [atropine]
systemic absorption: nearly complete
